# Assay results reported in PubChem BioAssay AID504467 (National Center for Advancing Translational Sciences (NCATS), 2011).
# Among all 330,000 compounds or so, about 7,700 (2.3%) were called active. This list was built around the results that the source calls inconclusive (neither active nor inactive); the mix of calls is not that of the screen. The call rests on the fitted dose curve; in most records, active means well fitted inhibition curve with a large enough effect; inconclusive means small, poorly fitted or top-dose-only effect, or effect the other way; inactive means flat fitted curve, though single readings scatter. Potencies of inconclusive entries are doubtful fits and often do not repeat.
# Experiment: qHTS screen for small molecules that inhibit ELG1-dependent DNA repair in human embryonic kidney (HEK293T) cells expressing luciferase-tagged ELG1; further: nearly all actives have a fitted effect of over 55% in size
# Conditions: HEK293T ELG1-luciferase reporter, luminescence, 16 h, DNA damage induced by 5-fluorouridine; activity change, negative = inhibition: at 46.1 µM (top of the series)
# Summary of the method: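 HEK293T cells expressing luciferase-tagged ELG1 (2,000/well) received 5-Fluorouridine plus compound or DMSO for 16 hr at 37 °C. Luciferase was read by ONE-Glo luminescence after 30 min at room temperature.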
# On the % scale 0 is the no-effect control and ±100 the full control effect; potency means the concentration at half of the fitted maximal effect.
Compound,"activity change, negative = inhibition",Potency
O=C(N/N=C/c1ccc(Sc2nc3ccccc3[nH]2)o1)c1ccncc1,inactive: -11.4%,
Cc1nnc(SCC(=O)N(C)C2CCCCC2)s1,,"inconclusive: 6.51 µM [activator, partial curve, poor fit]"
CCOC(=O)c1c(NCc2ccccc2)n[nH]c1C,inactive: 6.54%,
CC1=C(C(=O)OCCCBr)C(c2ccc3c(c2)OCO3)NC(=O)N1 (stereo not given),,"inconclusive: 0.103 µM [activator, full curve]"
O=C(CSc1nc(-c2ccccc2)cc(C(F)(F)F)n1)NCc1cccs1,inactive: -0.591%,
O=C(c1ccco1)N1CCN(C(=S)Nc2ccccc2C(F)(F)F)CC1,,active: 20.6 µM
Cc1ccc2nc(NC(=O)C3CCCN(S(=O)(=O)c4cccc5nsnc45)C3)sc2c1 (stereo not given),,active: 18.4 µM
CCn1c(C)nc2cc(C(=O)NNC(=S)Nc3ccccc3)ccc21,,"inconclusive: 4.11 µM [activator, full curve]"
Cc1nc2ccccc2n1S(=O)(=O)c1ccc(Br)cc1,inactive: 5.53%,
Cc1ccccc1SCC(=O)OCC(=O)NCCNC(=O)COC(=O)CSc1ccccc1C,,"inconclusive: 3.66 µM [activator, single point]"
COC(=O)c1c(C(=O)OC)c2cc(C(=O)c3ccccc3)ccn2c1Cl,,active: 25.9 µM
CCN(C(=O)COC(=O)c1cccnc1Nc1ccccc1F)C1CCS(=O)(=O)C1 (stereo not given),,"inconclusive: 23.1 µM [activator, single point]"
O=C(Cn1[nH]c(=O)c2ccccc2c1=O)Nc1cccc(S(=O)(=O)N2CCCCCC2)c1,,"inconclusive: 29.1 µM [inhibitor, single point]"
CCOc1ccccc1CN1CCNC(=O)C1CC(=O)NCc1cc(C)n(C)n1 (stereo not given),inactive: 12.9%,
CCCc1cc(NCc2ccccn2)n2nc(C)c(-c3ccccc3)c2n1,,active: 20.6 µM
Cc1ccc(C(=O)N2CCC(Cc3ccccc3)CC2)cc1[N+](=O)[O-],,"inconclusive: 29.1 µM [inhibitor, single point]"
N#C/C(=N\Nc1ccc(Cl)cc1)C(=O)c1ccccc1,,"inconclusive: 5.17 µM [inhibitor, partial curve, poor fit]"
C=CC[C@H](CC(=O)OC(C)(C)C)C(=O)OC[C@@H]1CCCN1C(=O)[C@@H](CC=C)CC(=O)NCCO,inactive: 4.56%,
Cc1onc(-c2ccccc2)c1C(=O)N1CCN(c2ncccc2C(F)(F)F)CC1,inactive: -6.78%,
CN1C(=O)/C(=C\c2ccccc2F)Sc2ccc(C(=O)NC3CCN(Cc4ccccc4)CC3)cc21,,"inconclusive: 5.8 µM [inhibitor, full curve]"
COC(=O)c1cc(NC(=O)c2cccc(F)c2)cc(C(=O)OC)c1,,"inconclusive: 23.1 µM [inhibitor, partial curve]"
CCN1CCN(c2nc(Nc3ccccc3)nc(N)c2[N+](=O)[O-])CC1,inactive: 0.86%,
Cc1ccc(N(CC(=O)NC2CCCC2)C(=O)c2ccc(C)s2)cc1,,"inconclusive: 25.9 µM [inhibitor, single point]"
Cc1nn(-c2ccccc2)c2nc(-c3ccco3)cc(C(=O)O)c12,inactive: 0.0922%,
Cc1cc(Nc2nn(C)c(N)c2C#N)ccc1F,,"inconclusive: 20.6 µM [activator, single point]"

# Retrieved one by one from the entries so far:
Compound,"activity change, negative = inhibition",Potency
O=C(c1ccco1)N1CCN(C(=S)Nc2ccccc2C(F)(F)F)CC1,,active: 20.6 µM
N#C/C(=N\Nc1ccc(Cl)cc1)C(=O)c1ccccc1,,"inconclusive: 5.17 µM [inhibitor, partial curve, poor fit]"

# Later entries

Compound,"activity change, negative = inhibition",Potency
Cc1ccc(SCC2CNc3nc4ccccc4c(=O)n32)c(C)c1 (stereo not given),,"inconclusive: 25.9 µM [activator, single point]"
Cc1cc(N2CCOCC2)n2ncc(-c3ccccc3Cl)c2n1,,"inconclusive: 5.17 µM [activator, partial curve]"
CC(C)(C)C(=O)Nc1ccc(C(=O)NNC(=O)c2ccccc2)cc1,,"inconclusive: 23.1 µM [activator, partial curve]"
Cc1cc(C(=O)NNC(=S)Nc2ccccc2)nn1C,inactive: -4.98%,
CC(=O)c1cccc(NC(=O)CSc2ncc(C(=O)Nc3ccccc3)c(=O)n2C)c1,,"inconclusive: 13 µM [activator, partial curve]"
COc1cc2c(cc1OC)-c1cc(N3CCc4ccccc43)nc(=O)n1CC2,,"inconclusive: 2.59 µM [inhibitor, full curve]"
CCOCC(=O)Nc1cc(C(=O)NCCc2ccccc2)ccc1Cl,,"inconclusive: 4.61 µM [activator, full curve]"
COc1ccc(NC(=O)c2ccc3nc(C)sc3c2)cc1,,"inconclusive: 16.4 µM [activator, partial curve]"
COc1ccc(NC(=O)CC2Sc3ncnn3C2=O)cc1 (stereo not given),inactive: -4.29%,
CCOC(=O)C1CCN(C(=O)CCc2nc3sc4c(c3c(=O)[nH]2)CCCC4)CC1,,"inconclusive: 7.3 µM [activator, single point]"
O=C(O)c1cc(S(=O)(=O)N2CCCCC2)ccc1N1CCOCC1,inactive: 0%,
COc1cccc(CN2C(=NC(=O)CCC3CCCC3)SC3CS(=O)(=O)CC32)c1 (stereo not given),inactive: 11.9%,
CN1CCN(C(=O)c2ccc3nc(-c4ccccc4)c(-c4ccccc4)nc3c2)CC1,inactive: -22.5%,
CC(C)(C)NC(=S)Nc1ccc(Nc2ccccc2)cc1,inactive: 18.4%,
Cc1ccccc1-n1c(=O)c2ccccc2n2cnnc12,,"inconclusive: 16.4 µM [activator, partial curve, poor fit]"
Cc1ccc(S(=O)(=O)N(C)Cc2ccc(C(=O)N/N=C/c3ccc(OC(F)F)cc3OC(F)F)cc2)cc1,,"inconclusive: 5.8 µM [inhibitor, partial curve, poor fit]"
CCc1ccc(S(=O)(=O)NCc2csc(C)n2)cc1,,"inconclusive: 18.3 µM [inhibitor, single point]"
CC(C)(C)C(=O)Nc1ccc(C(=O)COC(=O)C2=COCCO2)cc1,inactive: 22.5%,
Cc1ccc(C)c(N(CC(=O)Nc2ccccc2C(=O)NCc2ccco2)S(=O)(=O)c2ccccc2)c1,,active: 23.1 µM
CN1c2ccccc2C(C)(C)[C@]12C=Cc1cc(O)ccc1O2,inactive: -8.48%,
CCOC(=O)c1sc(NC(=O)CN2C(=O)NC3(CCC(C)CC3)C2=O)c(C(=O)OCC)c1C (stereo not given),inactive: -5.58%,
CCn1c(C(=O)N2CCc3ccccc3C2)cc2oc3ccccc3c21,,"inconclusive: 23.1 µM [inhibitor, single point]"
COc1ccc(NC(=O)c2ccc(CN3CCN(c4ccccc4)CC3)cc2)cc1,,"inconclusive: 5.17 µM [inhibitor, single point]"
COc1cccc(NC(=O)CN(c2ccccc2OC)S(=O)(=O)c2cccs2)c1,,active: 20.6 µM
NS(=O)(=O)c1c(Sc2ccccc2C(=O)O)ccc2ccccc12,,"inconclusive: 18.3 µM [activator, single point]"

# Among those listed so far, these contain fluorine.
Compound,"activity change, negative = inhibition",Potency
O=C(CSc1nc(-c2ccccc2)cc(C(F)(F)F)n1)NCc1cccs1,inactive: -0.591%,
O=C(c1ccco1)N1CCN(C(=S)Nc2ccccc2C(F)(F)F)CC1,,active: 20.6 µM
CCN(C(=O)COC(=O)c1cccnc1Nc1ccccc1F)C1CCS(=O)(=O)C1 (stereo not given),,"inconclusive: 23.1 µM [activator, single point]"
Cc1onc(-c2ccccc2)c1C(=O)N1CCN(c2ncccc2C(F)(F)F)CC1,inactive: -6.78%,
CN1C(=O)/C(=C\c2ccccc2F)Sc2ccc(C(=O)NC3CCN(Cc4ccccc4)CC3)cc21,,"inconclusive: 5.8 µM [inhibitor, full curve]"
COC(=O)c1cc(NC(=O)c2cccc(F)c2)cc(C(=O)OC)c1,,"inconclusive: 23.1 µM [inhibitor, partial curve]"
Cc1cc(Nc2nn(C)c(N)c2C#N)ccc1F,,"inconclusive: 20.6 µM [activator, single point]"
Cc1ccc(S(=O)(=O)N(C)Cc2ccc(C(=O)N/N=C/c3ccc(OC(F)F)cc3OC(F)F)cc2)cc1,,"inconclusive: 5.8 µM [inhibitor, partial curve, poor fit]"

# Next part:

Compound,"activity change, negative = inhibition",Potency
O=c1c(-c2ccc(Oc3ccccc3)cc2)[n+]([O-])c2ccccc2n1OCc1ccccn1,,"inconclusive: 29.1 µM [activator, single point]"
Cc1ccc(NC(=O)c2cc(NC(=O)c3ccco3)ccc2N2CCOCC2)cc1Cl,,active: 16.4 µM
CC(=O)c1cccc(NC(=O)N2CCCC2C(=O)Nc2ccc3c(c2)OCO3)c1 (stereo not given),inactive: 1.12%,
CC(C)C(=O)N1CCN(c2ccccc2NC(=O)Cc2ccc(Cl)cc2)CC1,,"inconclusive: 0.0731 µM [activator, partial curve, poor fit]"
Cc1ccc(/C=C/C(=O)NC2CCCCCCC2)o1,,"inconclusive: 23.1 µM [activator, single point]"
O=S(=O)(c1cccc(-c2nc3n(n2)Cc2ccccc2-3)c1)N1CCCC1,inactive: -37.9%,
O=C(c1ccc(F)cc1Cl)N(c1ccccn1)C1CCCCC1,inactive: -1.65%,
Cn1cccc1/C=N/NC(=O)Cc1cccs1,,"inconclusive: 29.1 µM [activator, single point]"
Cc1ccc(C(=O)NCc2ccco2)cc1,,"inconclusive: 11.2 µM [activator, partial curve, poor fit]"
O=C(Cn1cnc2ccccc2c1=O)c1ccc(OC(F)F)cc1,,"inconclusive: 13 µM [activator, partial curve, poor fit]"
O=C(O)CSc1ncnc2scc(-c3ccc(Br)cc3)c12,inactive: -9.72%,
COc1cc(CN2CCC(CO)(Cc3cccc(C(F)(F)F)c3)CC2)ccc1F,,"inconclusive: 29.1 µM [inhibitor, single point]"
Oc1ccccc1-c1nc2c3ccccc3c3ccccc3c2[nH]1,inactive: 0%,
CCc1c(C)nc(Nc2nc(C)c3cc(OC)ccc3n2)[nH]c1=O,inactive: -14.1%,
CCOc1ccccc1-c1nnc(SCC(=O)NC2CC2)n1CC,inactive: 5.62%,
Cc1cc(NC(=O)CSc2nc3c(cc2C#N)CCCC3)no1,,"inconclusive: 3.26 µM [activator, full curve]"
COc1cccc(NC(=O)C(C)N2C(=O)c3ccccc3S2(=O)=O)c1 (stereo not given),,"inconclusive: 7.3 µM [activator, single point]"
CN(C)C(=O)c1ccc(NC(=O)COc2cccc3c2OC(C)(C)C3)cc1,inactive: 1.95%,
O=C(CSCCS(=O)(=O)c1ccc(Cl)cc1)Nc1ccccc1,,"inconclusive: 32.6 µM [inhibitor, single point]"
Cc1cc(N2CCCC2)nc2ccc(NC(=S)NCCCN3CCC(C)CC3)cc12,inactive: -24.8%,
Cc1nc2nc(-c3ccc(F)cc3)cn2nc1C,,"inconclusive: 1.83 µM [activator, full curve]"
COc1ccc(C(=O)CN2C(=O)c3ccccc3C2=O)cc1,,"inconclusive: 14.6 µM [activator, partial curve]"
O=C1CS/C(=N/N=C/c2cccs2)N1,,"inconclusive: 29.1 µM [activator, single point]"
COc1ccc(CNC(=O)CN2CCN(S(=O)(=O)c3c(C)c(C)cc(C)c3C)CC2)cc1OC,,active: 7.3 µM
O=C(CSc1nc2ccccc2n1S(=O)(=O)c1ccccc1)N1CCCC1,,"inconclusive: 18.4 µM [activator, single point]"
